The other results are listed elsewhere or left out. Many values rest on one well or one pass, so single values are uncertain.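 Labelled rat cortical synaptosomes were engulfed by primary human fetal astrocytes. Engulfment equaled a red/green ratio, corrected for calcein live-cell signal and normalized to the plate median. Compounds were toxic when calcein dropped over 30%, and reduced phagocytosis when below 70% of the median above 5 µM.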
Tests used:
Human fetal astrocytes [1] = assay: loss of total cells relative to no-compound high-control median (toxicity); higher = more toxic (fewer cells); conditions: 24 h
Human fetal astrocytes [2] = assay: synaptosome phagocytosis (pHrodo/calcein intensity ratio) relative to plate median of data wells; higher = more phagocytosis; conditions: 24 h

Row | Structure (SMILES) | loss of total cells (Human fetal astrocytes [1]; 1.39 µM) [%] | loss of total cells (Human fetal astrocytes [1]; 2.78 µM) [%] | loss of total cells (Human fetal astrocytes [1]; 5.56 µM) [%] | loss of total cells (Human fetal astrocytes [1]; 11.11 µM) [%] | loss of total cells (Human fetal astrocytes [1]; 22.22 µM) [%] | synaptosome phagocytosis (Human fetal astrocytes [2]; 1.39 µM) [%] | synaptosome phagocytosis (Human fetal astrocytes [2]; 2.78 µM) [%] | synaptosome phagocytosis (Human fetal astrocytes [2]; 5.56 µM) [%] | synaptosome phagocytosis (Human fetal astrocytes [2]; 11.11 µM) [%] | synaptosome phagocytosis (Human fetal astrocytes [2]; 22.22 µM) [%]
1 | C[C@]12CC[C@@H](O)C[C@H]1CCc1ccccc12 [3alpha-HYDROXY-4,4-BISNOR-8,11,13-PODOCARPATRIENE] | 10.5 | -3.3 | -13 | 38.7 | 4.1 | 97.5 | 81.3 | 72.6 | 91.7 | 64.2
2 | NC1(C(=O)O)CCCC1 | 17 | 16.2 | 5.1 | 2.1 | 15.9 | 86.1 | 123 | 113 | 148 | 96.3
3 | Nc1ccn([C@@H]2O[C@H](CO)[C@@H](O)[C@H]2O)c(=O)n1 | -0.4 | 2 | -12.2 | 43.9 | -21.9 | 109 | 108 | 89.1 | 156 | 135

Reference: the supplement of paper PMC10689618
